At least one compound was matched to its structure with a doubt left.
How the values were obtained:
glioma = details: standard of care; cited from earlier work
GBM cell lines = assay: Glioma suppression assay, other GBM cell lines; format: cell-based, human; details: in vitro; FIG. 4E

Compound: Cn1nnc2c(C(N)=O)ncn2c1=O [TMZ, temozolomide]
- proportion of glioma patients in whom the drug is effective (glioma): about 50%
- effect on proliferation of a subset of GBM cell lines (GBM cell lines): effective in slowing down proliferation

— patent US20240295545A1, “GLIOMA THERAPY” (Imperial College Innovations Limited, priority 2021, published 2024)
